Measured values as given in patent US9920106 (dated 2018).

Experiments:
[1] = general procedure: Fmoc solid-phase peptide synthesis; HypoGel 200 RAM; HBTU; HATU for Aib residues and residues following Aib; details: whole synthesis, scale 1 mmol
[2] = general procedure: Fmoc solid-phase peptide synthesis; Rink amide resin (0.57 mmol/g); 2-chlorotrityl resin; HypoGel 200 RAM; HBTU; HATU for Aib residues and residues following Aib; details: whole synthesis

Substance: N^α-(3-(3H-imidazol-4-yl)-propionyl [Aib^22,35,Arg^26,34]GLP-1-(8-37))yl(N^ϵ-(3-(mPEGyl)propionyl)Lysinamide) wherein mPEGyl is polydisperse and has a molecular weight of approximately 2000 Da
- isolated mass [1]: 210 mg

Substance: N^ϵ37-(3-(mPEGyl)propionyl)[Aib^8,22,35,Lys^37]GLP-1(7-37) amide wherein mPEGyl is polydisperse and has a molecular weight of approximately 2 kDa
- crude HPLC purity ([2]; HPLC B6, scale of the general procedure 0.25 mmol): 64%

Substance: N^α-[Aib^8,22,35]GLP-1-(7-36)yl(N^ϵ-(3-(mPEGyl)propionyl)Lysinamide) wherein mPEGyl is polydisperse and has a molecular weight of approximately 750 Da
- final HPLC purity ([2]; HPLC B1, scale of the general procedure 0.25 mmol): 98%
